# Source: PubChem BioAssay AID504467 (National Center for Advancing Translational Sciences (NCATS), 2011)
# Among all 330,000 compounds or so, about 7,700 (2.3%) were called active. The inconclusive results got no clear call from the source; some entries with a clear call stand among them for comparison. The call rests on the fitted dose curve; in most records, active means well fitted inhibition curve with a large enough effect; inconclusive means small, poorly fitted or top-dose-only effect, or effect the other way; inactive means flat fitted curve, though single readings scatter. Potencies of inconclusive entries are doubtful fits and often do not repeat.
# Assay: qHTS screen for small molecules that inhibit ELG1-dependent DNA repair in human embryonic kidney (HEK293T) cells expressing luciferase-tagged ELG1; further: nearly all actives have a fitted effect of over 55% in size
# Settings: HEK293T ELG1-luciferase reporter, luminescence, 16 h, DNA damage induced by 5-fluorouridine; activity change, negative = inhibition: at 46.1 µM (top of the series)
# Summary of the method: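 Quantitative HTS, concentration-response format. 2,000 cells/well co-treated with 5-fluorouridine and compound, 16 hr in 5% CO2 at 37 °C; ONE-Glo luminescence read after 30 min.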
# On the % scale 0 is the no-effect control and ±100 the full control effect; potency means the concentration at half of the fitted maximal effect.
Structure (SMILES),"activity change, negative = inhibition",Potency
CC(C)CN1CCN(Cc2cc3ccccc3[nH]2)CC1CCO (stereo not drawn),inactive: -7.29%,
COc1ccc(OC)c(-c2csc(NC(=O)c3ccccc3F)n2)c1,inactive: -6.17%,
COc1ccc(C(=O)/C=C/c2ccc(N(C)C)cc2)c(OC)c1,inactive: 13%,
Cn1c(=O)cc(OCCCC(=O)NCCC2=CCCCC2)c2ccccc21,,"inconclusive: 29.1 µM [activator, single point]"
Cn1c2ccccc2c2cc(/C=N/NC(=O)c3ccc(N)cc3)ccc21,,"inconclusive: 29.1 µM [inhibitor, single point]"
COc1ccc(C)cc1N(C(=O)c1ccco1)C(C(=O)NC1CCCC1)c1cc(OC)c(OC)c(OC)c1 (stereo not drawn),inactive: 5%,
COc1ccc(C2=CN(Cc3ccccc3)C(c3ccccc3)CC2=O)cc1 (stereo not drawn),,"inconclusive: 16.4 µM [activator, partial curve]"
Cc1ccc(S(=O)(=O)N(C)c2ccccc2C(=O)N2CCOCC2)cc1,inactive: 5.83%,
COc1ccc(S(=O)(=O)N2CCN(C(=O)c3ccc([N+](=O)[O-])o3)CC2)cc1,,"inconclusive: 25.9 µM [inhibitor, partial curve]"
COc1ccccc1CC(=O)N1CCCc2ccccc21,,"inconclusive: 23.1 µM [inhibitor, partial curve]"
COc1ccc(Cc2nc(-c3ccccn3)no2)cc1OC,,"inconclusive: 20.6 µM [activator, partial curve]"
Cc1nn(-c2ccccc2)c(/N=C/c2ccc(O)cc2)c1-c1ccccc1,,"inconclusive: 3.66 µM [activator, full curve]"
Cc1cc(C)cc(C(=O)N2CCC3(CC2)NCCc2[nH]cnc23)c1,,"inconclusive: 18.3 µM [activator, single point]"
c1ccc(-c2nc(N3CCCCCC3)c3ccccc3n2)nc1,,active: 2.59 µM
CCOc1ccc(/C=N/OCC(=O)NCc2ccco2)cc1,inactive: -29%,
COc1ccc(-n2nc(C(=O)NCC(=O)Nc3cc(C)ccc3OC)c3ccccc3c2=O)c(OC)c1,,"inconclusive: 2.59 µM [inhibitor, full curve]"
CC(NC(=O)c1ccc(OC2CCN(S(=O)(=O)N(C)C)CC2)cc1)C1CC1 (stereo not drawn),inactive: -0.796%,
C[C@@H]1CCCCCCCCC(=O)OCCN(C(=O)OC(C)(C)C)[C@H](C)CCCCCCCCC(=O)OCCN(C(=O)OC(C)(C)C)[C@H](C)CCCCCCCCC(=O)OCCN(C(=O)OC(C)(C)C)[C@H](C)CCCCCCCCC(=O)OCCN1C(=O)OC(C)(C)C,,"inconclusive: 18.3 µM [activator, single point]"
Cc1ccc(CN=C(N)Nc2nc(C)cc(C)n2)cc1,,"inconclusive: 13 µM [inhibitor, partial curve, poor fit]"
CCCCNC(=O)c1cc2ccccc2s1,,"inconclusive: 10.3 µM [activator, partial curve]"
Cc1ccc(C2=CC(=O)C[C@H](c3ccc4c(c3)OCO4)C2)cc1,,"inconclusive: 20.6 µM [inhibitor, single point]"
O=C(NCc1cccs1)C1CCN(S(=O)(=O)c2ccc(Br)s2)CC1,,"inconclusive: 29.1 µM [inhibitor, partial curve, poor fit]"

# Whole records, looked up by structure.
# `COc1ccccc1CC(=O)N1CCCc2ccccc21` is entered as Potency: inconclusive: 23.1 µM [inhibitor, partial curve]
# `C[C@@H]1CCCCCCCCC(=O)OCCN(C(=O)OC(C)(C)C)[C@H](C)CCCCCCCCC(=O)OCCN(C(=O)OC(C)(C)C)[C@H](C)CCCCCCCCC(=O)OCCN(C(=O)OC(C)(C)C)[C@H](C)CCCCCCCCC(=O)OCCN1C(=O)OC(C)(C)C` is entered as Potency: inconclusive: 18.3 µM [activator, single point]
# `Cc1ccc(S(=O)(=O)N(C)c2ccccc2C(=O)N2CCOCC2)cc1` is entered as activity change, negative = inhibition: inactive: 5.83%

# (more compounds)

Structure (SMILES),"activity change, negative = inhibition",Potency
CCOC(=O)N1CCC(Nc2c(-c3ccc(C)c(C)c3)c(=O)c2=O)CC1,,"inconclusive: 18.4 µM [inhibitor, partial curve, poor fit]"
CC1(C)Cc2cccc(OCC(=O)OCC(=O)Nc3ccccc3)c2O1,,"inconclusive: 25.9 µM [activator, single point]"
CCOC(=O)CNc1c(-c2ccc(O)cc2)nc2ccc(Cl)cn12,,"inconclusive: 16.4 µM [activator, partial curve]"
COc1ccc(C(=O)N2CCCC(c3nc(-c4cc(OC)c(OC)c(OC)c4)no3)C2)cc1 (stereo not drawn),,active: 7.31 µM
Cc1ccc(NC(=O)c2ccc3nc[nH]c3c2)c(O)c1,,"inconclusive: 20.6 µM [activator, partial curve]"
Cc1ccc(C(=O)N/N=C\c2cccn2C)cn1,,"inconclusive: 23.1 µM [activator, single point]"
Cc1ccc(-n2nnnc2SCC(=O)Nc2cc(C)on2)c(C)c1,inactive: -8.9%,
O=C(CCl)Nc1cccn2ncnc12,,"inconclusive: 29.1 µM [inhibitor, single point]"
c1coc(-c2nnc(SCc3cn4ccccc4n3)o2)c1,,"inconclusive: 20.6 µM [activator, partial curve, poor fit]"
Cc1ccc(S(=O)(=O)N2CCOCC2)cc1NC(=O)COC(=O)C1COc2ccccc2O1 (stereo not drawn),inactive: 26.8%,
Cc1ccccc1Cn1c(O)c(N=NC(=S)Nc2ccccc2F)c2ccccc21,,active: 5.8 µM
CC1C(=O)N2CCCc3cc(NS(C)(=O)=O)cc1c32 (stereo not drawn),,"inconclusive: 18.3 µM [activator, partial curve, poor fit]"
COc1ccccc1-n1c(=O)c(C#N)c(-c2ccc([N+](=O)[O-])cc2)c2cc(C(=O)c3cc(F)ccc3O)cnc21,,"inconclusive: 25.9 µM [inhibitor, partial curve, poor fit]"
COc1ccccc1C(=O)Nc1ccc(OC(C)C(=O)N2CCOCC2)cc1 (stereo not drawn),inactive: 4.11%,
CCOC(=O)Cc1[nH]nc2c1C(c1cccc(OC)c1OC)C(C#N)=C(N)O2 (stereo not drawn),inactive: -0.0521%,
CCCc1cc(=O)oc2cc(Oc3ncccn3)ccc12,,"inconclusive: 18.4 µM [activator, partial curve]"
Cn1cc(C2CC(c3ccccc3)=NN2C(=O)c2ccccc2)c2ccccc21 (stereo not drawn),,"inconclusive: 29.1 µM [activator, single point]"
C=CCc1c(C)nc2cc(-c3ccc(C)cc3)[nH]n2c1=O,,"inconclusive: 0.517 µM [activator, full curve]"
O=C(NCc1ccc2c(c1)OCO2)c1ccc(COc2cccc(Cl)c2)o1,,"inconclusive: 20.6 µM [inhibitor, single point]"
Clc1ccc2nc(-c3ccc(Br)s3)cn2c1,,"inconclusive: 0.259 µM [activator, full curve]"
Cc1ccc(CNC(=O)CN(C(=O)C2(C)CC(=O)N=C3C=CC=CN32)c2ccccc2F)cc1 (stereo not drawn),inactive: 5.03%,
